Reference: PubChem BioAssay AID2685 (National Center for Advancing Translational Sciences (NCATS), 2010)
The list shows a part of the results. Shown are side measurements of this screen, not its main read-out; they come without a call. Most of these compounds were active or inconclusive in the main read-out, so they are no random draw. Words in brackets tell the shape of the fitted curve; partial curves, single points and poor fits give uncertain potencies.

Assay: qHTS Assay for Lipid Storage Modulators in Drosophila S3 Cells;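 on cell number change: cells counted by Cell Tracker Red CMTPX staining in the red channel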
Conditions: BODIPY lipid droplet fluorescence, 18-24 h; for cell number change: measured here: cell count max response, cells fed with added oleic acid
Method in brief: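 Laser-scanning cytometry quantifies lipid droplet accumulation (500–530 nm total intensity; droplet/cell object ratio) in oleic acid-fed (400 uM added) Drosophila S3 cells treated with a concentration series. 20 uM Triacsin C defined 100% inhibition.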

[1] = measured here: lipid fluorescence (Fed channel) AC50, cells fed with added oleic acid
[2] = measured here: cell number channel AC50, cells fed with added oleic acid

SMILES	cell number change	AC50 [1]	AC50 [2]
CCOc1ccc2nc(SCC(=O)NC(=O)C(C)C)sc2c1	-28.1%	7.31 µM [falling, partial curve, poor fit]	–
CCOC(=O)C1CCN(C(=O)/C=C/c2ccc(OC)cc2)CC1	14.1%	5.8 µM [falling, partial curve]	–
Cc1cc(C)nc(SCC(=O)NCc2ccco2)n1	1.56%	0.0058 µM [falling, full curve, poor fit]	–
O=C(O)CC1=C(c2ccc(F)cc2)CCC1=O	7.7%	0.0164 µM [falling, full curve]	6.51 µM [rising, single point]
COc1ccc(C2/C=C\CN(C(=O)Nc3ccc(C(F)(F)F)cc3)CC(=O)N2Cc2ccc(F)cc2)cc1 (stereo not drawn)	-27.7%	29.1 µM [falling, single point]	–
C/C(N)=C(/C#N)C(=O)COC(=O)c1cc(-c2cccc(Br)c2)nc2ccccc12	-4.01%	–	2.31 µM [falling, single point]
Cc1cc(C)n(C(=O)c2ccc(S(=O)(=O)N3CCCC3)cc2)n1	-4.53%	0.146 µM [falling, full curve]	–
CCOc1c2ccc(C(=O)NC3CCCc4ccccc43)cc2nn1CC (stereo not drawn)	53.5%	4.61 µM [rising, partial curve]	5.8 µM [rising, full curve]
CCC(=O)c1ccc2ncccc2c1	-59.5%	2.91 µM [rising, single point]	29.1 µM [falling, single point]
Cc1nnc(-c2cnn(C)c2N)n1CCCN(C)C	-7.73%	–	–
O=C(Nc1ccccc1)C1=C[C@H](c2coc3ccccc3c2=O)C[C@H](OCc2ccc(CO)cc2)O1	0.927%	18.4 µM [falling, single point]	–
Cc1cccc(OC(C)c2ccnc3nc(/N=C/N(C)C)nn23)c1 (stereo not drawn)	5.44%	29.1 µM [rising, single point]	–
CC/C(=N\NC(=O)c1ccncc1)C12CC3CC(CC(C3)C1)C2	-17.2%	0.13 µM [falling, full curve, poor fit]	–
O=c1[nH]c2ccccc2nc1C(F)(F)C(F)F	19.9%	0.092 µM [rising, full curve]	0.0731 µM [rising, full curve, poor fit]
CCOc1ccc(NC(=O)NCCCN2CCCC2)cc1	-59.4%	–	25.9 µM [falling, partial curve, poor fit]
O=C(NCCN1CCOCC1)c1ccccc1N1C(=O)[C@@H]2Cc3c([nH]c4ccccc34)C(c3ccccc3)N2C1=O (stereo partly drawn)	0.491%	0.092 µM [rising, full curve, poor fit]	–
Cc1cccc(NC(=O)CSCC(=O)Nc2cc(Cl)ccc2N2CCN(C)CC2)c1	34.6%	–	–
CCC1(C)Cc2c(sc3nnn(CC(=O)Nc4ccc(C)cc4)c(=O)c23)CO1 (stereo not drawn)	52%	23.1 µM [rising, partial curve]	23.1 µM [rising, partial curve, poor fit]
COc1cccc(NC(=O)CN(C)C(C)C(=O)N2CCCC2)c1 (stereo not drawn)	-50.9%	0.92 µM [falling, full curve]	0.92 µM [falling, full curve]
Cc1cc(C)c(O)c(-c2n[nH]c3c2C(c2cccc(O)c2)N(Cc2ccco2)C3=O)c1 (stereo not drawn)	-52.3%	16.4 µM [falling, single point]	16.4 µM [falling, single point]

SMILES	cell number change	AC50 [1]	AC50 [2]
COc1ccc(NC(=O)COc2cccc3c2OC(C)(C)C3)cc1OC	-13.1%	0.231 µM [rising, full curve, poor fit]	–
Cc1ccc(S(=O)(=O)N(C)C)cc1NC(=O)CSc1ncc(C(F)(F)F)cc1Cl	-1.8%	32.6 µM [falling, partial curve, poor fit]	–
COc1c(Br)cc(C(N)=O)cc1OCc1ccccc1	-18.5%	0.0731 µM [rising, full curve, poor fit]	0.092 µM [falling, full curve, poor fit]
Cc1cc(=O)n(-c2ccc3ccccc3n2)[nH]1	–	–	0.58 µM [rising, full curve, poor fit]
CCOc1ccc(S(=O)(=O)Nc2cccc(C(=O)NCC(c3ccccc3)N(C)C)c2)cc1 (stereo not drawn)	112%	–	29.1 µM [rising, single point]
Cc1ccc2c(c1)nc(NCCO)n2C	0.136%	0.0058 µM [falling, full curve, poor fit]	–
COc1ccc(OC)c(-c2csc(NC(=O)CSc3ccccc3)n2)c1	-0.0814%	–	–
COc1ccc(Br)cc1CN(C)CC(=O)Nc1cccc(S(N)(=O)=O)c1	–	6.51 µM [rising, partial curve]	0.259 µM [rising, single point]
COc1cccc(CNC(=O)CCCc2c[nH]c3ccccc23)c1	-50.4%	8.91 µM [falling, partial curve]	7.94 µM [falling, partial curve, poor fit]
COc1ccc(-c2nsc(SCC(=O)Nc3cc(C)on3)n2)cc1	–	2.59 µM [falling, partial curve]	–
CCCOc1ccc(C(CC(=O)O)NS(=O)(=O)c2ccc(NC(C)=O)cc2)cc1 (stereo not drawn)	–	0.92 µM [rising, full curve]	–
O=[N+]([O-])c1cc2c(cc1/C=N/n1c(-c3ccccn3)n[nH]c1=S)OCO2	-13%	0.13 µM [falling, full curve, poor fit]	0.731 µM [rising, single point]
Cc1[nH]c2ccccc2c1CCC(N)=O	12.2%	–	6.51 µM [falling, single point]
Cn1c(N2CCOCC2)c(/C=N/O)c2ccccc21	51.1%	5.17 µM [rising, partial curve]	20.6 µM [rising, partial curve]
CC1CCN(C(=O)c2ccccc2NC(=O)c2cccc(S(=O)(=O)N(C)C)c2)CC1	34.6%	–	0.092 µM [rising, full curve, poor fit]
Cc1ccc(CNc2nc3ccc(C)cc3n3cnnc23)cc1	-7.85%	–	0.0092 µM [rising, full curve, poor fit]
C=CCOc1cccc(CNCc2cccnc2)c1	-0.276%	3.26 µM [rising, partial curve]	–
CCn1c(SCC(=O)Nc2nccs2)nnc1-c1cc2cccc(OC)c2o1	–	0.651 µM [falling, full curve]	–
COc1cccc(-c2cc(C(F)(F)F)nc(N3CCOCC3)n2)c1	90.2%	–	29.1 µM [rising, partial curve, poor fit]
CCCCn1c(SCC(=O)Nc2ccc(C)c(S(=O)(=O)N3CCOCC3)c2)nnc1C(CC)N(C)C (stereo not drawn)	75%	–	16.4 µM [rising, single point]

Complete entries, looked up by structure. Order of values: cell number change	AC50 [1]	AC50 [2]
Cc1ccc(S(=O)(=O)N(C)C)cc1NC(=O)CSc1ncc(C(F)(F)F)cc1Cl is listed as -1.8%	32.6 µM [falling, partial curve, poor fit]	–
COc1c(Br)cc(C(N)=O)cc1OCc1ccccc1 is listed as -18.5%	0.0731 µM [rising, full curve, poor fit]	0.092 µM [falling, full curve, poor fit]

Additional records follow.

SMILES	cell number change	AC50 [1]	AC50 [2]
CCc1nnc(NC(=O)CSc2nc(C)nc3c2c(=O)n(C)c(=O)n3C)s1	0.215%	–	–
Nc1nc(SCc2ccc(F)cc2)ns1	6.18%	–	–
O=C(CN1C(=O)NC(Cc2ccccc2)C1=O)Nc1ccc(F)cc1 (stereo not drawn)	-8.3%	5.17 µM [rising, full curve, poor fit]	0.82 µM [falling, single point]
CCOc1ccccc1N(CC(=O)Nc1cccnc1)S(C)(=O)=O	40.7%	–	18.4 µM [rising, single point]
Cc1ccc(-n2nc3ccc(NC(=O)c4cccc([N+](=O)[O-])c4C)cc3n2)cc1	16.9%	6.51 µM [falling, single point]	–
COC(=O)c1cc(-c2cccs2)[nH]n1	20.4%	4.11 µM [falling, partial curve, poor fit]	–
CCOc1ccc(CCNC(=O)CSc2cc(=O)n(CC)c3ccccc23)cc1OCC	-12.7%	0.146 µM [falling, full curve]	–
CCOc1ccccc1NC(=O)COC(=O)C12CC3CC(CC(O)(C3)C1)C2	-14%	–	0.58 µM [falling, single point]
CCC(C)NC(=O)c1c(N)n(/N=C/c2cccnc2)c2nc3ccccc3nc12 (stereo not drawn)	-8.08%	–	–
C/C(=N/NC(=O)c1ccccn1)c1ccncc1	19.8%	–	–
CCN(c1ccccc1)S(=O)(=O)c1ccc(N)cc1	-1.06%	0.13 µM [rising, full curve, poor fit]	–
CCOc1ccc(NC(=O)CCS(=O)(=O)c2cccc3nsnc23)cc1	19.6%	7.31 µM [rising, partial curve]	–
Cc1cc(S(=O)(=O)Nc2ccc(N(C)C)cc2)c(C)s1	54.9%	–	29.1 µM [rising, single point]
Cc1nnsc1C(=O)NNC(=O)Nc1ccccc1	5.65%	–	–
COc1cccc(CCC(=O)Nc2cccc(S(=O)(=O)N3CCCC3)c2)c1OC	-8.83%	–	–
Cc1ccc(C2=NN(C(=O)CN3CCN(C4CCS(=O)(=O)C4)CC3)C(c3ccco3)C2)cc1 (stereo not drawn)	24.1%	11.6 µM [rising, partial curve]	–
COc1cccc(C(=O)NC(=S)Nc2ccc3[nH]c(=O)[nH]c3c2)c1	73.1%	–	29.1 µM [rising, single point]
CC(CCOS(N)(=O)=O)c1ccccc1 (stereo not drawn)	33%	29.1 µM [rising, single point]	–
C/C(Cc1ccccc1)=N\NC(=O)CNC(=O)c1ccc(F)cc1	-1.19%	5.8 µM [falling, single point]	–
Cc1ccc(C(=O)C(C)[n+]2cccc(C(N)=O)c2)cc1 (stereo not drawn)	–	0.411 µM [rising, single point]	–

Given in CSV form: part of the list above.
SMILES,cell number change,AC50 [1],AC50 [2]
CCc1nnc(NC(=O)CSc2nc(C)nc3c2c(=O)n(C)c(=O)n3C)s1,0.215%,–,–
O=C(CN1C(=O)NC(Cc2ccccc2)C1=O)Nc1ccc(F)cc1 (stereo not drawn),-8.3%,"5.17 µM [rising, full curve, poor fit]","0.82 µM [falling, single point]"
CCOc1ccccc1N(CC(=O)Nc1cccnc1)S(C)(=O)=O,40.7%,–,"18.4 µM [rising, single point]"
Cc1ccc(-n2nc3ccc(NC(=O)c4cccc([N+](=O)[O-])c4C)cc3n2)cc1,16.9%,"6.51 µM [falling, single point]",–
COC(=O)c1cc(-c2cccs2)[nH]n1,20.4%,"4.11 µM [falling, partial curve, poor fit]",–
CCOc1ccc(CCNC(=O)CSc2cc(=O)n(CC)c3ccccc23)cc1OCC,-12.7%,"0.146 µM [falling, full curve]",–
CCOc1ccccc1NC(=O)COC(=O)C12CC3CC(CC(O)(C3)C1)C2,-14%,–,"0.58 µM [falling, single point]"
CCC(C)NC(=O)c1c(N)n(/N=C/c2cccnc2)c2nc3ccccc3nc12 (stereo not drawn),-8.08%,–,–
C/C(=N/NC(=O)c1ccccn1)c1ccncc1,19.8%,–,–
CCN(c1ccccc1)S(=O)(=O)c1ccc(N)cc1,-1.06%,"0.13 µM [rising, full curve, poor fit]",–
CCOc1ccc(NC(=O)CCS(=O)(=O)c2cccc3nsnc23)cc1,19.6%,"7.31 µM [rising, partial curve]",–
Cc1cc(S(=O)(=O)Nc2ccc(N(C)C)cc2)c(C)s1,54.9%,–,"29.1 µM [rising, single point]"
Cc1nnsc1C(=O)NNC(=O)Nc1ccccc1,5.65%,–,–
Cc1ccc(C2=NN(C(=O)CN3CCN(C4CCS(=O)(=O)C4)CC3)C(c3ccco3)C2)cc1 (stereo not drawn),24.1%,"11.6 µM [rising, partial curve]",–
COc1cccc(C(=O)NC(=S)Nc2ccc3[nH]c(=O)[nH]c3c2)c1,73.1%,–,"29.1 µM [rising, single point]"
C/C(Cc1ccccc1)=N\NC(=O)CNC(=O)c1ccc(F)cc1,-1.19%,"5.8 µM [falling, single point]",–
Cc1ccc(C(=O)C(C)[n+]2cccc(C(N)=O)c2)cc1 (stereo not drawn),–,"0.411 µM [rising, single point]",–
